The numbers were not newly measured in article PMC3534288 (BMC Biophysics, 2012), which cites them from elsewhere.

This series deals with mCA XIII. Conditions: read-out: observed Ki; murine isozyme mCA XIII; cited from earlier work.

The term Ki denotes the equilibrium dissociation constant of an inhibitor or competing ligand from its target. Turning to `CC(=O)Nc1nnc(S(N)(=O)=O)s1` [AZM, acetazolamide], the inhibition constant (Ki) is 17 nM.
